Test results: US7772383B2, “Chemical PCR: Compositions for enhancing polynucleotide amplification reactions” (The Trustees of Princeton University, priority 2002, dated 2010)
Read-outs that look alike come from different tables or passages of the source.

Key:
Type in all cases: biochemical
[1] = test system: 511 bp segment of human prostate-specific membrane antigen (PSM) cDNA; assay: PCR amplification of PSM cDNA with diol additives, standard cycling; settings: annealing temperature gradient studies
Experimental: (§1) Amplification reactions were carried out under the following general conditions. Those skilled in the art will appreciate, however, that to the extent that the conditions (set forth in this application) required for specific experiments described in this example were inconsistent with the following general conditions, limited exceptions to the following general conditions were made The general conditions were as follows: 10 Mm Tris-HCl (Ph 8.8), 50 Mm KCl, 1.5 Mm MgCl2, 0.01% (w/v) gelatin, 0.2 Um primers, 0.06 ng/ul template, 0.2 Mm each Dntp, 0.04 U/ul Taq polymerase. The templates used were bovine brain N-WASP cDNA (1518 bp), a 996 bp segment of human myeloid leukocyte c-jun cDNA, a 511 bp segment of human prostate-specific membrane antigen (PSM) cDNA, and bovine brain glycolipid transfer protein (GTP) cDNA (660 bp). cDNA synthesis was carried out using the FIRST-STRAND® RT-PCR kit from Stratagene on the respective mRNAs purchased from Clontech. All amplification reactions for gene were carried out using a single master batch of cDNA. Taq polymerase and dNTPs were obtained from Stratagene. Primers were obtained from Genosys. Primer melting temperatures (Tms) were calculated using the Genosys oligo calculator program. The sequences of the primers were as follows.
(§2) Polymerase chain reactions for the N-WASP gene were conducted on a ROBOCYCLER® Gradient 40 thermal cycler from Stratagene using 100 ul solutions in 600 ul thin-walled tubes. For expediency, amplification of c-jun, PSM and GTP was carried out in a ROBOCYCLER® Gradient 96 thermal cycler from Stratagene using 50 ul solutions in 200 ul thin-walled tubes. Prior to Taq polymerase addition, a hotstart protocol was carried out that consisted of an initial cycle of 95° C. for 5 minutes (11) to ensure complete first-strand separation, followed by a cycle of 54° C. for 5 minutes. Amplifications were run for 30 cycles. […] Extension was done at 72° C. for periods depending on target length: 2 minutes for N-WASP, 1.5 minutes for c-jun and GTP, and 1 minute for PSM. Annealings were carried out either at fixed concentrations of additives using temperature gradients of 38-56° C. for N-WASP and 44-58° C. for the other targets, or at varying concentrations of additives using fixed temperatures of 41° C. for N-WASP, 50° C. for c-jun and PSM, and 54° C. for GTP.
(§3) Amplification products were analyzed by agarose gel electrophoresis on 0.8% agarose gels in which 20 ul reaction products were loaded with 4 ul loading buffer. Gels were stained with ethidium bromide, visualized on a UV transilluminator (Fisher), and documented by photography. Densitometric quantitation of amplification products was carried out using IMAGE SCANNER® and IMAGE MASTER® software from Amersham Pharmacia. Background correction was done using the software's rolling disc method.
(§4) With PSM, 1,2-propanediol, 1,2-butanediol, 1,3-butanediol, 1,4-butanediol and glycerol were tested; with c-jun, ethylene glycol and 1,3-propanediol were also tested in addition to these compounds. […] The following additive concentrations were tested using these annealing temperatures: 1,2-propanediol—0.5, 0.8, 1.1, 1.4, 1.7 and 2.0M; 1,2-butanediol—0.1, 0.3, 0.5, 0.6, 0.7 and 0.8M; 1,3-butanediol—0.1, 0.3, 0.5, 0.6, 0.9, 1.1, 1.2M; 1,4-butanediol—0.1 to 1.1M in 0.2M intervals; 1,5-pentanediol—0.1-0.6M in 0.1M intervals; glycerol—0.5 to 1.9M in 0.2M intervals, and 2.2M.

[2] = test system: 996 bp segment of human myeloid leukocyte c-jun cDNA; assay: PCR amplification of c-jun cDNA with diol additives, standard cycling
Experimental: as §1, §2, §3, §4

[3] = test system: bovine brain glycolipid transfer protein (GTP) cDNA (660 bp); assay: PCR amplification of GTP cDNA with diol additives, standard cycling
Experimental: as §1, §2, §3
Investigations into the PCR enhancing capabilities of diol cosolvents were carried out using GTP as the primary template. […] The standard protocol for annealing temperature and concentration gradient screening was again followed. […] These cosolvents were thus omitted from further studies. The optimal annealing temperatures for the remaining compounds were: ethylene glycol, 1,2-propanediol, 1,3-propanediol and cis-1,2-cyclopentanediol—58° C.; 1,2-butanediol—54° C.; 1,3-butanediol and 1,4-butanediol—[…]; 2,4-pentanediol, 1,5-pentanediol, 1,6-hexanediol and MPD—56° C.

[4] = c-jun, annealing temperature gradient studies
[5] = GTP, annealing temperature gradients, 95° C. denaturing temperature

SMILES | optimal annealing temperature [1] [°C] | optimal annealing temperature [2, 4] [°C] | optimal annealing temperature [3, 5] [°C] | optimal annealing temperature [3] [°C] | optimal annealing temperature [2] [°C]
OCC(O)CO [Glycerol, reference compound] | 52 | 58 |  |  | 
O[C@@H]1CCC[C@@H]1O [cis-1,2-Cyclopentanediol] |  |  | 58 |  | 
CC(O)CCO (stereo not shown) [1,3-Butanediol] | 50 | 50 | 60 |  | 
CCC(O)CO (stereo not shown) [1,2-Butanediol] | 52 | 50 | 54 |  | 
OCCO [Ethylene glycol] |  |  |  | 58 | 52
OCCCCO [1,4-Butanediol] | 54 |  |  | 60 | 50
CC(O)CC(C)O (stereo not shown) [2,4-Pentanediol] |  |  | 56 |  | 
CC(O)CC(C)(C)O (stereo not shown) [2-Methyl-2,4-Pentanediol] |  |  | 56 |  | 
OCCCCCCO [1,6-Hexanediol] |  |  | 56 |  | 
CC(O)CO (stereo not shown) [1,2-Propanediol] | 52 | 50 | 58 |  | 
OCCCO [1,3-Propanediol] |  | 50 | 58 |  | 
OCCCCCO [1,5-Pentanediol] | 52 | 54 | 56 |  | 
